This is an account of results in PMC5461506, “Strength of Neisseria meningitidis binding to endothelial cells requires highly-ordered CD147/β2-adrenoceptor clusters assembled by alpha-actinin-4” (Nature Communications, 2017).

Chains of the proteins cited; added tags and fusions are not shown. Lines headed by an entry give the natural chain unless they say otherwise; changes in a name come on top.
UniProt P35613: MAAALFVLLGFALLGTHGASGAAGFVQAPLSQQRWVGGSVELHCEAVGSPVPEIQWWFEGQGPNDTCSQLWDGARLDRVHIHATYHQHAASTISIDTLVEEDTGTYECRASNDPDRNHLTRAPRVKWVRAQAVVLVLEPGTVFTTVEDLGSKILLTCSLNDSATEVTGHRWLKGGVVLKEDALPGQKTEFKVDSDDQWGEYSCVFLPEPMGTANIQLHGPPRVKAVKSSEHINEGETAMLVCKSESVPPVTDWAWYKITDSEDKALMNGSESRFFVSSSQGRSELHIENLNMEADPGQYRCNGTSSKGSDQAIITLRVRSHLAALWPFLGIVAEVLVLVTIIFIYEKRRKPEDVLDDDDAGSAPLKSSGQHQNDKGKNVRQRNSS
UniProt O43707: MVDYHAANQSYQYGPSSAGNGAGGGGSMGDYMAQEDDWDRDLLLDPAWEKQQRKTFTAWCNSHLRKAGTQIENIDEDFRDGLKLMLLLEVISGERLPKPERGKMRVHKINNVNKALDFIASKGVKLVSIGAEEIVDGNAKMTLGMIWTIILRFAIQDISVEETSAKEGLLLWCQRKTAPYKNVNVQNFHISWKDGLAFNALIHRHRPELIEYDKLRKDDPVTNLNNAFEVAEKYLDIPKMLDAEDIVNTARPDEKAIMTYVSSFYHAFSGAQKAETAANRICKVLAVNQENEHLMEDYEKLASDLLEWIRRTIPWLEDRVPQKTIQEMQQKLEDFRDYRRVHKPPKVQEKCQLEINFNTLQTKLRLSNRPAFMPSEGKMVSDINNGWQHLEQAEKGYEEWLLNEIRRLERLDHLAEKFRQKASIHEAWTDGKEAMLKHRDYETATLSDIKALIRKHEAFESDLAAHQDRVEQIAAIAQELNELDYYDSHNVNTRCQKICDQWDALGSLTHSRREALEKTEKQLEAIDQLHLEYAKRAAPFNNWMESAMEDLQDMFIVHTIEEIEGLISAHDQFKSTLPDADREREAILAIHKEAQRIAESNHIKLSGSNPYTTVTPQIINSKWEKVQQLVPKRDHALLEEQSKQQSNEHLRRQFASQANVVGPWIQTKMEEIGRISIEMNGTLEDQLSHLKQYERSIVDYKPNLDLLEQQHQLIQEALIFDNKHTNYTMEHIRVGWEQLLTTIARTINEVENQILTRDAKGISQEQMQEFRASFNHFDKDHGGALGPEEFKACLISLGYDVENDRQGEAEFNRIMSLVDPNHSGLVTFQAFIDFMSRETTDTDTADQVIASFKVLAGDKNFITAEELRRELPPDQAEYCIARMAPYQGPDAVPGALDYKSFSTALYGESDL

For assay [1], the target named is CD147 fused to the N-terminal fragment of Renilla luciferase (CD147-L1) (human) (UniProt P35613). The experiment in a line: split reporter; Renilla luciferase (Rluc8) complementation of L1 (1-229) and L2 (230-311) fusions co-transfected in HEK293 cells, coelenterazine h, 24 h after transfection.
Assay [2] addresses CD147 (endogenous, HBMECs) (human (endogenous in HBMEC)) (UniProt P35613). The experiment in a line: co-IP; endogenous CD147 immunoprecipitated from HBMEC lysates (1% n-dodecyl β-D-maltoside), non-infected or infected with meningococci for the indicated times; blot with anti-Actn4.
For assay [3], the target named is CD147 fused to Renilla luciferase (CD147-Rluc) (human) (UniProt P35613). Nature of the assay: FRET or BRET; BRET saturation in living HEK293 cells: 2 ng donor plasmid (CD147-Rluc or 5 ng CD147ΔD2-Rluc), 0-400 ng acceptor plasmid (YFP fusion), coelenterazine h 5 μM, 24 h after transfection. Background: In BRET a luciferase serves as donor, and the signal depends on an acceptor being close.

No constants are given. Whether binding was seen depends on the method and setting. Binding seen in cells or lysates may run through a third protein. A result given as binding can be weak or reduced; the word gives no strength.

On to “β2AR fused to the C-terminal fragment of Renilla luciferase (β2AR-L2) (from UniProt P07550 1-413) (receptor)”, for which the binding entry in assay [1] is on record as “binds”.

Regarding “α-actinin-4 (endogenous, HBMECs) (from UniProt O43707 1-911)”, the binding result in assay [2] was “binds”.

For the substance “β2-adrenergic receptor fused to the yellow fluorescent protein (β2AR-YFP) (from UniProt P07550 1-413)”, the binding entry in assay [3] is given as “binds”.
